Source: US20180243435A1 (AbbVie / Abbott, published 2018)
Positions count from the first letter of the chain named. No constants are given. Whether binding was seen depends on the method and setting. Some results given as binding are weak or reduced against the parent protein; the word gives no strength.

Sequences of proteins named here, by UniProt entry; tags and fusion partners are left off. A change or cut given only in a name is not applied to a line headed by its entry.
UniProt Q9NYJ7: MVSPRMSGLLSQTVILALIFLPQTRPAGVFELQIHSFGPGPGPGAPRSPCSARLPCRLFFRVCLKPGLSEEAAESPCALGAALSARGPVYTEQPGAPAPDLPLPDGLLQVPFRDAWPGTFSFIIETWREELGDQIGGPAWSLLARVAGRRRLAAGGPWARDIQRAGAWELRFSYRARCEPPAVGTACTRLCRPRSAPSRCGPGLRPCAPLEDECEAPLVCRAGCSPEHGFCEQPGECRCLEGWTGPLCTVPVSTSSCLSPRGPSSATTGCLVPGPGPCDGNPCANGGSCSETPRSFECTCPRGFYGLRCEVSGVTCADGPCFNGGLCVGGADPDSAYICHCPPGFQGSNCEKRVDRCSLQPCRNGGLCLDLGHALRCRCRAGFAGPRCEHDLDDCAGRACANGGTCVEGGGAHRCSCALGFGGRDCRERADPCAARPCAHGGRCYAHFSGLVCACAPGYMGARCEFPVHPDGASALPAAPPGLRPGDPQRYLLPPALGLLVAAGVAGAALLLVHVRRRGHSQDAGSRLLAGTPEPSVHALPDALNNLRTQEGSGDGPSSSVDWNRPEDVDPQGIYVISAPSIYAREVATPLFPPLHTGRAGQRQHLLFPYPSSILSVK

B1: chimeric SC16.34 (murine SC16.34 variable regions, human IgG1/kappa constant regions) (antibody, V domains shown)
VH: QIQLVQSGPELKRPGETVKISCKASGYTFTNYGMNWVKQAPGKGLKWMGWINTYTGDPTYADDFKGRFAFSLETSASTAYLQINNLKNEDTATYFCARIGGNSPSDYWGQGTSLTVSS
VL: SIVMTQTPKFLLVSAGDRVTITCKASQSVSNDVAWYQQKPGQSPKLLIYYASNRYSGVPDRFTGSGYGTDFTFTISTVQAEDLAVYFCQQDYSSPWTFGGGTKLEIKR
B2: chimeric SC16.56 (murine SC16.56 variable regions, human IgG1/kappa constant regions) (antibody, V domains shown)
VH: B1 VH with R13K, G49A, D57E, Y80S, N84I, G101D, N102S, S113T
VL: B1 VL with A34V, S56T, T63A, T72S, S93T, K107R
B3: hSC16.15 (antibody, human IgG1, kappa, V domains shown)
VH: QVQLVQSGAEVKKPGASVKVSCKASGYTFTRYWIHWIRQAPGQGLEWMGYINPTTVYTEFNQNFKDRVTMTRDTSTSTVYMELSSLRSEDTAVYYCARGGSNFFDYWGQGTTVTVSS
VL: AIQLTQSPSSLSASVGDRVTITCRASENIYYNLAWYQQKPGKAPKLLIYTANSLEDGVPSRFSGSGSGTDFTLTISSLQPEDFATYFCKQAYDVPPTFGGGTKLEIKR
B4: hSC16.25 (antibody, human IgG1, kappa, V domains shown)
VH: QITLKESGPTLVKPTQTLTLTCTFSGFSLSTSGMGVGWIRQPPGKALEWLTDIWWDDNKYYNPSLKSRLTITKDTSKNQVVLTMTNMDPVDTATYYCARRVNYYYDPYYAMDYWGQGTLVTVSS
VL: EIVLTQSPDFQSVTPKEKVTITCSASSSVSYMHWYQQKPDQSPKLLIKDSSKLASGVPSRFSGSGSGTDFTLTINSLEAEDAATYYCQQWSSNPLTFGQGTKLEIKR
B5: chimeric SC16.25 (murine SC16.25 variable regions, human IgG1/kappa constant regions) (antibody, V domains shown)
VH: QVTLKESGPGILQPSQTLSLTCSFSGFSLSTSGMGVGWIRQPSGEGLEWLTDIWWDDNKYYNPSLKSRLTISKDTSSNQVFLNITSVDTADTATYYCARRVNYYYDPYYAMDYWGQGTSVTVSS
VL: QIVLTQSPAIMSASPGEKVTMTCSASSSVSYMHWYQQKSGTSPKRWIYDSSKLASGVPARFSGSGSGTSYSLTISSMEAEDAATYYCQQWSSNPLTFGAGTKLELKR
B6: hSC16.13 (antibody, human IgG1, kappa, V domains shown)
VH: QITLKESGPTLVKPTQTLTLTCTFSGFSLSTSGMGVGWIRQPPGKALEWLAHIWWDDVKRYSPSLKSRLTITKDTSKNQVVLTMTNMDPVDTATYYCARIVSFDNDVVSAMDYWGQGTLVTVSS
VL: DIQMTQSPSSLSASVGDRVTITCSASSSVSYMYWYQQKPGKAPKLLIYLTSNLASGVPSRFSGSGSGTDFTLTISSLQPEDFATYYCQQWRSNPFTFGQGTKLEIKR
B7: hSC16.34 (antibody, human IgG1, kappa, V domains shown)
VH: QVQLVQSGAEVKKPGASVKVSCKASGYTFTNYGMNWVRQAPGQRLEWMGWINTYTGDPTYADDFKGRVTITRDTSASTAYMELSSLRSEDTAVYYCARIGGNSPSDYWGQGTTVTVSS
VL: DIQMTQSPSSLSASVGDRVTITCKASQSVSNDVAWYQQKPGKVPKLLIYYASNRYSGVPSRFSGSGSGTDFTLTISSLQPEDVATYFCQQDYSSPWTFGGGTKVEIKR
B8: hSC16.56 (antibody, human IgG1, kappa, V domains shown)
VH: B7 VH with R44G, D57E, I70M, R72T, A76T, S84R, E89D, G101D, N102S, T113L
VL: EIVMTQSPATLSVSPGERATLSCKASQSVSNDVVWYQQKPGQAPRLLIYYASNRYTGIPARFSGSGSGTEFTLTISSLQSEDFAVYYCQQDYTSPWTFGQGTKLEIKR
B9: chimeric SC16.15 (murine SC16.15 variable regions, human IgG1/kappa constant regions) (antibody, V domains shown)
VH: QVQLQQSGAELAKPGASVKMSCKASGYTFTRYWIHWIKQRPGQGLEWIGYINPTTVYTEFNQNFKDKATLTADKSSTTASMQLSSLTSEDSAVYYCARGGSNFFDYWGQGTTLTVSS
VL: DIQMTQSPASLAASVGETVAITCRASENIYYNLAWYQQKQGKSPQLLIYTANSLEDGVPSRFSGSGSGTQYSLKINSMQPEDSATYFCKQAYDVPPTFGGGTKLEIKR
B10: SC16.148 (antibody, V domains shown)
VH: QIQLVQSGPELKKPGETVKISCKASGYTLTNYGMNWVKQAPGKGLKWMGWINTYTGEPTYADDFKGRFAFSLETSARIVYLQINNLKNEDTATYFCAKYEAHEGFVYWGQGTLVTVSA
VL: QIVLTQSPAIMSASPGEKVTMTCSASSSVSYMYWYQQKPGSSPRLLIYDTSNLASGVPVRFSGSGSGTSYSLTISRMEAEDTATYYCQEWSNNPLTFGDGTKLELK
B11: SC16.149 (antibody, V domains shown)
VH: QVQLKESGPGLVAPSQSLSITCAVSGFSLTSFGVHWVRQPPGKGLEWLGVIWAGGSTNYYSALMSRLSISIDNSKSQVFLKMNSLQTDDTAMYYCARDWEGWFAYWGQGTLVTVSA
VL: DIQMNQSPSSLSASLGDTITITCHASQNINVWLSWYQQKPGNIPKLLIYKASHLHTGVPSRLSGSGSGTGFTLTISSLQPEDIATYYCQQGQSYPFTFGSGTTLEIK
B12: SC16.143 (antibody, V domains shown)
VH: QVQLQQSGPELVKPGASVRISCKASGYTFTSYYIHWVKQRPGQGLEWIGWIYPGNGNTKYNEKFKGKATLTADKSSSTAYMQISSLTSEDSAVYFCARERWLLLWFAYWGQGTLVTVSA
VL: DVLMTQTPLSLPVSLGDQASISCRSSQSIVHSNGNTYLEWYLQKPGQSPKLLIYKVSNRFSGVPDRFSGSGSGTDFTLKISRVEAEDLGVYYCFQGSHVPLTFGAGTKLELK
B13: SC16.147 (antibody, V domains shown)
VH: QIQLVQSGPELTKPGETVKISCKASGYTFTDYSLHWVKQALGKGLKWMGWINTETGEPAYADDFKGRFAFSLETSASTAYLQINDLKNEDTTTYFCGIYDGYAMDYWGQGTSVTVSS
VL: DIQMTQTASSLSASLGDRVTISCRASQDINNYLNWYQQKPDGTVKLLIYYTSRLHSGVPSRFSGSGSGTDYSLTISILEQEDIATYFCQQGDTLPWTFGGGTKLEIK
B14: SC16.144 (antibody, V domains shown)
VH: QIQLVQSGPELKKPGETVKISCKASGYTFTNYGMNWVKQAPGKGLKWVGWINTYTGEPTYADDFKGRFAFSLETSASTAYLQIDNLKNEDTATYFCARVGDYVGFDYWGQGTTLTVSS
VL: SIVMTQTPKFLLVSAGDRVTITCKASQSVSNDVGWYQQKPGQSPKLLIYYASNRYNGVPDRFTGSGYGTDFTFTISTVQAEDLAVYFCQQDYSSPWTFGGGTKLEIK
B15: SC16.15 (antibody, V domains shown)
VH: B9 VH
VL: DIQMTQSPASLAASVGETVAITCRASENIYYNLAWYQQKQGKSPQLLIYTANSLEDGVPSRFSGSGSGTQYSLKINSMQPEDSATYFCKQAYDVPPTFGGGTKLEIK

Target: human DLL3 (human) (UniProt Q9NYJ7)
Assay: surface plasmon resonance

Row | binding | Binder
1 | binds | B1
2 | binds | B2
3 | binds | B3
4 | binds | B4
5 | binds | B5
6 | binds | B6
7 | binds | B7
8 | binds | B8
9 | binds | B9

Target: human DLL3 (human) (UniProt Q9NYJ7)
Assay: hybridoma screening: ELISA on immobilized DLL3 or flow cytometry on HEK-293T cells overexpressing hDLL3

Row | binding | Binder
10 | binds | B10
11 | binds | B11
12 | binds | B12
13 | binds | B13
14 | binds | B14
15 | binds | B15
